Data reported in PubChem BioAssay AID493014 (National Center for Advancing Translational Sciences (NCATS), 2011).
The other results are listed elsewhere or left out. Shown are side measurements of this screen, not its main read-out; they come without a call. The list favours compounds with an active or inconclusive main result. Potencies come from curve fits of mixed quality, noted in brackets.

Assay: qHTS Assay to Find Inhibitors of Chronic Active B-Cell Receptor Signaling
Settings: ABC-DLBCL IkBa-CBG/CBR reporter, luminescence ratio (green luciferase fused to IkBa over red control in TMD8 lymphoma cells), 4 h
Procedure, shortened: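 TMD8 ABC-DLBCL cells carrying doxycycline-inducible green luciferase fused to IkappaBalpha plus unfused red luciferase were exposed to compounds (up to 46 uM) for 4 hrs at 37C. Activity came from the overlap-corrected green/red luminescence ratio.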

[1] = measured here: CBR red luminescence, cell number

Compound: CCOC(=O)c1c(C)n(C)c2ccc(OCC(O)Cn3nc(C)cc3C)cc12 (centres undefined)
- AC50 [1]: 9.2 µM [falling, partial curve, poor fit]

Compound: Cc1onc(-c2ccccc2)c1-c1nc2ccccc2c(=O)o1
- AC50 [1]: 29.1 µM [rising, single point]
- AC50 (measured here: IkBa-CBG green luminescence): 8.2 µM [falling, single point]

Compound: Cc1cccc(-c2nnc3n2N=C(c2ccccc2Br)CS3)c1
- AC50 [1]: 31.6 µM [falling, single point]

Compound: CCc1ccc2c(c1)[C@]1(C(=O)N2)[C@@H]2C(=O)N(Cc3ccccc3)C(=O)[C@@H]2[C@@H]2CCCN21
- AC50 [1]: 35.5 µM [falling, single point]

Compound: O=C(NCc1ccc2c(c1)OCO2)c1ccc(Br)o1
- AC50 [1]: 5.62 µM [rising, single point]

Compound: O=C(NCCc1ccco1)C(=O)NCC1OCCCN1S(=O)(=O)c1ccccc1 (centres undefined)
- AC50 [1]: 20 µM [rising, partial curve, poor fit]

Compound: COc1cc2ccccc2cc1C(=O)Nc1ccccc1Cl
- AC50 [1]: 35.5 µM [falling, single point]

Compound: CN1CC[n+]2cnc3ccccc3c21
- AC50 [1]: 0.00411 µM [falling, full curve, poor fit]

Compound: N#Cc1cc2c(nc1SCc1nc3ccccc3[nH]1)CCC2
- AC50 [1]: 1.78 µM [falling, full curve, poor fit]

Compound: CCN(C(=O)COc1ccccc1)c1nnc(-c2cccnc2)s1
- AC50 [1]: 0.164 µM [falling, full curve, poor fit]

Compound: COc1ccc(S(=O)(=O)n2c(CCN3CCOCC3)nc3ccccc32)cc1
- AC50 [1]: 32.6 µM [falling, single point]

Compound: O=C(Nc1cccc(Cl)c1)Nc1ccc(Cl)cn1
- AC50 [1]: 23.1 µM [rising, single point]

Compound: CCc1cccc(C)c1NC(=O)c1cc(=O)[nH]c2ccc(S(=O)(=O)N3CCOCC3)cc12
- AC50 [1]: 5.8 µM [rising, full curve]

Compound: Cn1ncc(Cl)c1C(=O)Nc1ccc2c(c1)CCC2
- AC50 [1]: 3.55 µM [rising, single point]

Compound: Cc1cc(C=O)c(C)n1-c1ccc(N2CCCCC2)c([N+](=O)[O-])c1
- AC50 [1]: 20 µM [falling, partial curve, poor fit]

Compound: COCC1CCCCN1Cc1cn(-c2ccccc2)nc1-c1ccc2c(c1)OCO2 (centres undefined)
- AC50 [1]: 4.47 µM [rising, full curve, poor fit]

Compound: CCOc1ccccc1/C=N/Nc1ccnc(=O)[nH]1
- AC50 [1]: 7.94 µM [falling, full curve, poor fit]

Compound: Cc1c(C(=O)Nc2cccc(F)c2)cnn1-c1ccccc1
- AC50 [1]: 17.8 µM [falling, single point]
